In the supplement of paper PMC10849652:
The list shows a part of the results. Residues, ends and D or L forms follow the SMILES beside them. *: point of attachment. Cbz = O=C(OCc1ccccc1)*

The chains behind the UniProt entries cited, without tags or fusion partners. Where a name states a change or a piece, a line headed by the entry shows the natural chain unless it says otherwise.
UniProt Q8TEU7: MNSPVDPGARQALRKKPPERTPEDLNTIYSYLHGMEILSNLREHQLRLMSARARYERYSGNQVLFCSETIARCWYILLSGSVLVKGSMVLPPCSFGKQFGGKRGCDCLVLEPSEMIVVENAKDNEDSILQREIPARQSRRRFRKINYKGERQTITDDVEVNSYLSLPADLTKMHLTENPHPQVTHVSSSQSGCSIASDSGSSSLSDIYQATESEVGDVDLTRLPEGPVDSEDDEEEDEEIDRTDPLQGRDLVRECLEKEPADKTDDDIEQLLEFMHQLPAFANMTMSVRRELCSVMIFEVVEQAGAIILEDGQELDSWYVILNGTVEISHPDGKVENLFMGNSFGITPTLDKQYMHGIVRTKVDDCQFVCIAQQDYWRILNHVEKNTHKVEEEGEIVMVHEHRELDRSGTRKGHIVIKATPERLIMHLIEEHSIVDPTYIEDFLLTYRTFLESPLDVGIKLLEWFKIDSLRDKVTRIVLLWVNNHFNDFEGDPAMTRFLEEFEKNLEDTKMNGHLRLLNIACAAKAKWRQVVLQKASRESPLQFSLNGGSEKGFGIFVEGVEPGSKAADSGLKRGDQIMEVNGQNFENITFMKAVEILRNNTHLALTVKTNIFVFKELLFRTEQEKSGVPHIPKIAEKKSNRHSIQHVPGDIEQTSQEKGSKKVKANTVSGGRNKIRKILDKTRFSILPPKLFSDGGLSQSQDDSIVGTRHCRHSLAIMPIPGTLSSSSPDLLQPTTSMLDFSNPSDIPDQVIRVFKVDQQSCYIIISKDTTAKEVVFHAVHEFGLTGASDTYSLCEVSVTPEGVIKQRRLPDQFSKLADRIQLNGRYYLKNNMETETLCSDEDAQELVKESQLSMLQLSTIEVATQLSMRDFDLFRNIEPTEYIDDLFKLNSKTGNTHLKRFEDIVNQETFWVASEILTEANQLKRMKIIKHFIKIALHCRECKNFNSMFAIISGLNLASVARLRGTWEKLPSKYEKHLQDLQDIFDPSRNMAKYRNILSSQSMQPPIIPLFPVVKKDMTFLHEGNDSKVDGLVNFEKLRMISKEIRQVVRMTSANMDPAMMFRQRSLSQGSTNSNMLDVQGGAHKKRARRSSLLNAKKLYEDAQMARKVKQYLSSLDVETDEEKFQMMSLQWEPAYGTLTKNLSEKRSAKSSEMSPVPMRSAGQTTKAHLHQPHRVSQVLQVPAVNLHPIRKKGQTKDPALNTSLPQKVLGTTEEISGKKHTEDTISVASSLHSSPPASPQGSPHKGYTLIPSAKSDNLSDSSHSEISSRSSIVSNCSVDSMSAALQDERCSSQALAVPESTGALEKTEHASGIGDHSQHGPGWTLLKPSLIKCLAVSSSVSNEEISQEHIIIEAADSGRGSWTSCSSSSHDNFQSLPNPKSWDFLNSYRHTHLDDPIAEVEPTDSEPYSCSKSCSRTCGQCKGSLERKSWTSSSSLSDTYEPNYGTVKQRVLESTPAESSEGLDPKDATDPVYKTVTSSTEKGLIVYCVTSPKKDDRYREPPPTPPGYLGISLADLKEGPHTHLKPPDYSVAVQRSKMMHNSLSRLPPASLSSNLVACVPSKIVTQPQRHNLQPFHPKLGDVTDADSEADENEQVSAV
UniProt P61020: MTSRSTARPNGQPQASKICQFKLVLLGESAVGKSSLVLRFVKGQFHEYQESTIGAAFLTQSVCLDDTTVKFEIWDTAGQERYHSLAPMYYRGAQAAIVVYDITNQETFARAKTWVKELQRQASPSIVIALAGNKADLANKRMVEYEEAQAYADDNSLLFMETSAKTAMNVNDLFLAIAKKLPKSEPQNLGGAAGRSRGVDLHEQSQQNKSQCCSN
UniProt P62834: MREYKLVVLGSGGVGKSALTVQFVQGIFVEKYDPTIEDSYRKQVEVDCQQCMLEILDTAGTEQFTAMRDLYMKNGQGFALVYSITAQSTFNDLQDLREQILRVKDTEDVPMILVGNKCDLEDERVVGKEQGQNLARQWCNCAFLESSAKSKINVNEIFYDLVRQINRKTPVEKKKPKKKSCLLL
UniProt P47736: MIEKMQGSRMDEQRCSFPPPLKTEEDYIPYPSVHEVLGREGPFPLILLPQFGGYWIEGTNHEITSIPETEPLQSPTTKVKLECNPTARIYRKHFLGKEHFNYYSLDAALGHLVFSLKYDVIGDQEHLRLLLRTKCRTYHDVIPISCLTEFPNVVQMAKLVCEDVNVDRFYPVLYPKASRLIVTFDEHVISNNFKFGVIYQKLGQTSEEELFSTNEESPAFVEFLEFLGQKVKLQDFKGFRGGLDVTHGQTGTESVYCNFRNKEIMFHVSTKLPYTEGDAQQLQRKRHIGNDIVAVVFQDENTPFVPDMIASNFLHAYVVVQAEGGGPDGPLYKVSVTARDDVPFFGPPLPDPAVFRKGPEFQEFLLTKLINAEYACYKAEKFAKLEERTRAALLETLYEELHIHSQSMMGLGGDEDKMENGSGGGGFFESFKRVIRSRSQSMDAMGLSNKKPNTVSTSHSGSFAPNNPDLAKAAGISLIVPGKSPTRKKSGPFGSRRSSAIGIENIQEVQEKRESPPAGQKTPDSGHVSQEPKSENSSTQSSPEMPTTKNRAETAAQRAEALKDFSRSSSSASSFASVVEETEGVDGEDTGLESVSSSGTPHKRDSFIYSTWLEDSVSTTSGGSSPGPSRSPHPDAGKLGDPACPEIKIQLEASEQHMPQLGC
UniProt P51149, whole entry, looked up: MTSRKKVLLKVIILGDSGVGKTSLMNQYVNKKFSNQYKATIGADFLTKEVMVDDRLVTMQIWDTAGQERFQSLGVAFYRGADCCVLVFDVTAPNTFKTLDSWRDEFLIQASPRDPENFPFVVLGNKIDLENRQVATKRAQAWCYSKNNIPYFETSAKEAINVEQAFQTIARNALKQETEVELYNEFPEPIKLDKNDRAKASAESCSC
UniProt P10114: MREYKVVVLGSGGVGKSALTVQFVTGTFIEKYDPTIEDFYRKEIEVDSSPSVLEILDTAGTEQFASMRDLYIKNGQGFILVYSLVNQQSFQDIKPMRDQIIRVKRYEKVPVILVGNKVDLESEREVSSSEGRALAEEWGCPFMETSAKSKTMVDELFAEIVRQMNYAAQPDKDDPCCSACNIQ
UniProt P46060: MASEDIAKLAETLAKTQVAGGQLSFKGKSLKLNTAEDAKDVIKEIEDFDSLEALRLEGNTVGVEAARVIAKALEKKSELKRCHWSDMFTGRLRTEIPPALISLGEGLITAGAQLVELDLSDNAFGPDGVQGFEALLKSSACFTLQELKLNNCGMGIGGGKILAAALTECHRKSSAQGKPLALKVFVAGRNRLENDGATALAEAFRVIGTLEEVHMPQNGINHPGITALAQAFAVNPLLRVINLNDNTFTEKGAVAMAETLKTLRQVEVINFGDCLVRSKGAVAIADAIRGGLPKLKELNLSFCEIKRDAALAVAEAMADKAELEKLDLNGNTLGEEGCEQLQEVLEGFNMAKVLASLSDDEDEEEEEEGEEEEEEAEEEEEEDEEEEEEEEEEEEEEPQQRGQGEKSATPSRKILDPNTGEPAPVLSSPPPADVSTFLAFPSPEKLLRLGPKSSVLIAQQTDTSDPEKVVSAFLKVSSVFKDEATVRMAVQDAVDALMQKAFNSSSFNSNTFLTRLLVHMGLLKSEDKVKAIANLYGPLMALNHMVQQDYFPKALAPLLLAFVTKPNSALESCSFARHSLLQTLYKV
UniProt Q13636: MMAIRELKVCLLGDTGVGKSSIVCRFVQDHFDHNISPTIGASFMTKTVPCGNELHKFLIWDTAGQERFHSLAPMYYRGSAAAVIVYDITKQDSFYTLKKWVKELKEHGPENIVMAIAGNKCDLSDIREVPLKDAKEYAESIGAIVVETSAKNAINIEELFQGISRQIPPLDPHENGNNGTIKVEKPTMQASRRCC
UniProt Q8WWW0: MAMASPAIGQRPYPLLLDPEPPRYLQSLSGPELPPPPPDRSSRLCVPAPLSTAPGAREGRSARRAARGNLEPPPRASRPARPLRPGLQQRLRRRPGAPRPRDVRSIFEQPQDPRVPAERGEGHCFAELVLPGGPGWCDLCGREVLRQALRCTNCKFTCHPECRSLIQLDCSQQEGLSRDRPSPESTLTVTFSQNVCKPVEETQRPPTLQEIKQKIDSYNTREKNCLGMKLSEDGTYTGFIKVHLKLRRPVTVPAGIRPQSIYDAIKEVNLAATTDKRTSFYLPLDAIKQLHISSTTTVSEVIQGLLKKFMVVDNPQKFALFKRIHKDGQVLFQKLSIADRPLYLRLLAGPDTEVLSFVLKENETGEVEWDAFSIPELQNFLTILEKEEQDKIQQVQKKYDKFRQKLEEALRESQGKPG
UniProt O43251: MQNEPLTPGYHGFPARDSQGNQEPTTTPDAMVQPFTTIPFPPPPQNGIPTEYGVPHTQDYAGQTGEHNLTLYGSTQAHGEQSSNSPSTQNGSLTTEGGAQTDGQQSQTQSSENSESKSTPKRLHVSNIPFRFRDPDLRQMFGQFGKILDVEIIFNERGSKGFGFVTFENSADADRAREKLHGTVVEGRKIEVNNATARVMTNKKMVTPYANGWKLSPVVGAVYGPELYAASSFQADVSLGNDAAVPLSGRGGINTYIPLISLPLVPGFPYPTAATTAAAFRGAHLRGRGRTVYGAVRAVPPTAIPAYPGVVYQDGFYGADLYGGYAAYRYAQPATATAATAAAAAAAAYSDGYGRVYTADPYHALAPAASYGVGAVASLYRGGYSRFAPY
UniProt P62820, whole entry, looked up: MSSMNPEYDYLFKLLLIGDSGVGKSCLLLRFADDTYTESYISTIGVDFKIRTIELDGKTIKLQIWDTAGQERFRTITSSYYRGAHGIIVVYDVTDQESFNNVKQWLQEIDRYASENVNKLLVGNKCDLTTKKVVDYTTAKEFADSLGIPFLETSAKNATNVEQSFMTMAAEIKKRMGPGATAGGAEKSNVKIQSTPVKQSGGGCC
UniProt Q6VN20, whole entry, looked up: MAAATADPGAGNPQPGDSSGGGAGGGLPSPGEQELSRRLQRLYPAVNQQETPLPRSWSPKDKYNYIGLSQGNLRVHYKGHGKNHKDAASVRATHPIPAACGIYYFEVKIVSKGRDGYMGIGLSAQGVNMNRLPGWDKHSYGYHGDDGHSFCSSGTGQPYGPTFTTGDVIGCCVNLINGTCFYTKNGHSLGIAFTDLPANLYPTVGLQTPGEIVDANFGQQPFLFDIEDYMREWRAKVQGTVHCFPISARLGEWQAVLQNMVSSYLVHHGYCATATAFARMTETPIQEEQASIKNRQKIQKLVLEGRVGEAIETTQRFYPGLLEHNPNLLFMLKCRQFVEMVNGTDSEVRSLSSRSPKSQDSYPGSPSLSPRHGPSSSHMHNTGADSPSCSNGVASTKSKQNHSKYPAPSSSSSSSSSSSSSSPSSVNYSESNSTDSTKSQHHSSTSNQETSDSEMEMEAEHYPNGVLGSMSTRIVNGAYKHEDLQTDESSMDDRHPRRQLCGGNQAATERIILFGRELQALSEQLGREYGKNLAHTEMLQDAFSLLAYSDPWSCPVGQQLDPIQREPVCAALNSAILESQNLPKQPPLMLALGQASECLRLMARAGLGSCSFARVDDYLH
UniProt P61225: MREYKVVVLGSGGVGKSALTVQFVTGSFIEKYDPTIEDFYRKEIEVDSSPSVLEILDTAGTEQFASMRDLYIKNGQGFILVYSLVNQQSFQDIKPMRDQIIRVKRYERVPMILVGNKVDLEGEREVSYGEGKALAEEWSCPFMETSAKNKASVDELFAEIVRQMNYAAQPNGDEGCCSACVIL
UniProt P54727: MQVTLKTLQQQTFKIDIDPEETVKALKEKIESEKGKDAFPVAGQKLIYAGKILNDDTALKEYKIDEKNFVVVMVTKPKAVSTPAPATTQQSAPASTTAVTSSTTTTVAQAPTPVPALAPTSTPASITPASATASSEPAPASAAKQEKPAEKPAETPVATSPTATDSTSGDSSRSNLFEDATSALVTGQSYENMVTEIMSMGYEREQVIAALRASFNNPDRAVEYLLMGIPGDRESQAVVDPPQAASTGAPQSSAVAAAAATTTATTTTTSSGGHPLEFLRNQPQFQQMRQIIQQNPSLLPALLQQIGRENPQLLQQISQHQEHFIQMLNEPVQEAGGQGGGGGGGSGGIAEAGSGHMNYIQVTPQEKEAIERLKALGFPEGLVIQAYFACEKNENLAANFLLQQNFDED

Columns and labels:
Assay in all cases: log2 fold change, soluble protein after heating vs DMSO (PISA); higher = thermal stabilisation; K562 cells, 10 uM, 30 min; active = over 0.2 and 3.5 SD of the protein, either way, in both replicates (recomputed)
erlotinib = compound: C#Cc1cccc(Nc2ncnc3cc(OCCOC)c(OCCOC)cc23)c1 [erlotinib]
In short: (§1)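 Quantification of soluble protein used TMTpro 16plex LC-MS/MS, with channel sums equalised. Samples were the supernatant after 21,000xg for 90 min of pooled aliquots from K562 cells (2×10^6 cells/mL) treated with 10 μM compound for 30 min, heated for 3 min over 48°C-58°C, and extracted in PBS with 0.5% NP-40 at 4°C. Values, from duplicates, describe thermal stability against control samples on a log2 fold-change scale.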

[1] = compound: C/C(=N\NC(=O)C1=CC(=CC=C1)S(=O)(=O)N2CCOCC2)/C3=C(C=CC(=C3)Cl)O
In short: as §1

[2] = compound: C1=CC(=C(C=C1Cl)C2=NC3=NC=CN=C3C(=N2)NC4=CC=NC=C4)F
In short: as §1

[3] = compound: C1=CC(=CC=C1C2=NC3=C(N2)C=C(C=C3)C(=O)N)OC4=CC=C(C=C4)Cl
In short: as §1

[4] = compound: C1=CC2=C(C=CC(=C2)/C=C\3/C(=O)NC(=NCC4=CC=CS4)S3)N=C1
In short: as §1

[5] = compound: C1=CC2=NC=CN=C2C=C1/C=C/3\C(=O)NC(=O)S3
In short: as §1

[6] = compound: C1=CC=C(C=C1)C2=NC(=C(N2)C3=CC=NC=C3)C4=CC(=C(C=C4)Cl)O
In short: as §1

[7] = compound: C1=CC=C2C(=C1)C3=NNC4=CC=CC(=C43)C2=O
In short: as §1

[8] = compound: C1CCN(C1)C(=O)NC2=CC=CC(=C2)NC3=NC=C(C(=N3)NCCC4=CN=CN4)Br
In short: as §1

[9] = compound: C1CN(CCC1(CC2=CC=C(C=C2)Cl)N)C3=NC=NC4=C3C=CN4
In short: as §1

IRAK-1-4 Inhibitor I = compound: C1COCCN1CCN2C3=CC=CC=C3N=C2NC(=O)C4=CC(=CC=C4)[N+](=O)[O-] [IRAK-1-4 Inhibitor I]
In short: as §1

ibrutinib = compound: C=CC(=O)N1CCC[C@@H](n2nc(-c3ccc(Oc4ccccc4)cc3)c3c(N)ncnc32)C1 [ibrutinib]
In short: as §1

[10] = compound: CC(=O)c1cnc2ccc(-c3cc(Cl)c(O)c(Cl)c3)nc2c1N[C@H]1CC[C@H](CN(C)C)CC1
In short: as §1

ralimetinib = compound: CC(C)(C)Cn1c(N)nc2ccc(-c3[nH]c(C(C)(C)C)nc3-c3ccc(F)cc3)nc21 [ralimetinib]
In short: as §1

[11] = compound: CC(C)(O)CC(=O)NCCn1ccc2ncnc(Nc3ccc(Oc4cccc(C(F)(F)F)c4)c(Cl)c3)c21
In short: as §1

[12] = compound: CC(C)C1=C2N=C(C=C(N2N=C1)NCC3=CC=CC=C3)NCCCCCCN
In short: as §1

[13] = compound: CC(C)C[C@@H](C=O)NC(=O)[C@H](CC(C)C)NC(=O)[C@H](CC(C)C)NC(=O)OCc1ccccc1
In short: as §1

pinometostat = compound: CC(C)N(C[C@H]1O[C@@H](n2cnc3c(N)ncnc32)[C@H](O)[C@@H]1O)[C@H]1C[C@@H](CCc2nc3cc(C(C)(C)C)ccc3[nH]2)C1 [pinometostat]
In short: as §1

[14] = compound: CC1=C(C(CC(=O)N1)C2=CC=C(C=C2)C(F)(F)F)C(=O)NC3=C(C=C4C(=C3)C=NN4)F
In short: as §1

[15] = compound: CC1=C(C2=C(C=C1)C(=O)C3=CC=CC=C3N2CCCN)C
In short: as §1

Measured: log2 fold change

RAPGEF6 isoform 4 (UniProt Q8TEU7)
inactive: erlotinib -0.034 | [1] -0.018 | [2] -0.008 | [3] 0.054 | [4] 0.083 | [5] 0.209 | [6] -0.117 | [7] 0.003 | [8] 0.03 | [9] 0.203 | IRAK-1-4 Inhibitor I 0.01 | ibrutinib -0.001 | [10] -0.1 | ralimetinib 0.09 | [11] 0.006 | [12] 0.02 | [13] 0.092 | pinometostat 0.07 | [14] -0.031 | [15] -0.282

RAB5B (UniProt P61020)
inactive: erlotinib -0.018 | [1] -0.037 | [2] -0.014 | [3] 0.017 | [4] -0.085 | [5] 0.007 | [6] 0.068 | [7] 0.025 | [8] 0.004 | [9] 0.066 | IRAK-1-4 Inhibitor I 0.028 | ibrutinib 0.02 | [10] -0.012 | ralimetinib 0.111 | [11] -0.083 | [12] 0.099 | [13] -0.039 | pinometostat -0.043 | [14] 0.023 | [15] 0.014

RAP1A (UniProt P62834)
inactive: erlotinib -0.007 | [1] 0.017 | [2] 0.058 | [3] 0.02 | [4] -0.051 | [5] -0.033 | [6] 0.165 | [7] 0.007 | [8] -0.007 | [9] 0.102 | IRAK-1-4 Inhibitor I 0.054 | ibrutinib -0.006 | [10] 0.002 | ralimetinib 0.109 | [11] -0.006 | [12] 0.131 | [13] -0.036 | pinometostat -0.06 | [14] -0.059 | [15] 0.014

RAP1GAP isoform 4 (UniProt P47736)
inactive: erlotinib 0.059 | [1] 0.106 | [2] -0.056 | [3] 0.03 | [4] -0.016 | [5] -0.055 | [6] -0.008 | [7] 0.139 | [8] -0.096 | [9] -0.048 | IRAK-1-4 Inhibitor I -0.006 | ibrutinib -0.027 | [10] -0.137 | ralimetinib -0.012 | [11] -0.027 | [12] -0.278 | [13] 0.082 | pinometostat -0.021 | [14] 0.077 | [15] 0.043

RAB7A (UniProt P51149)
inactive: erlotinib 0.009 | [1] 0.006 | [2] 0.037 | [3] -0.025 | [4] -0.009 | [5] -0.001 | [6] 0.02 | [7] -0.018 | [8] 0.031 | [9] 0.051 | IRAK-1-4 Inhibitor I 0.042 | ibrutinib 0.03 | [10] 0.017 | ralimetinib -0.045 | [11] 0.026 | [12] 0.016 | [13] 0 | pinometostat -0.06 | [14] 0.01 | [15] -0.026

RAP2A (UniProt P10114)
inactive: erlotinib 0.038 | [1] -0.027 | [2] -0.007 | [3] 0 | [4] 0.008 | [5] -0.011 | [6] -0.038 | [7] -0.025 | [8] -0.026 | [9] 0.058 | IRAK-1-4 Inhibitor I 0.047 | ibrutinib 0.055 | [10] -0.116 | ralimetinib -0.007 | [11] 0.016 | [12] 0.155 | [13] -0.026 | pinometostat -0.048 | [14] -0.042 | [15] 0.034

RANGAP1 (UniProt P46060)
inactive: erlotinib 0.002 | [1] 0.044 | [2] -0.001 | [3] -0.01 | [4] 0.024 | [5] 0.05 | [6] 0.014 | [7] 0.029 | [8] -0.007 | [9] -0.024 | IRAK-1-4 Inhibitor I -0.034 | ibrutinib -0.04 | [10] 0.019 | ralimetinib 0.047 | [11] -0.066 | [12] -0.116 | [13] 0.026 | pinometostat 0.044 | [14] -0.001 | [15] 0.039

2 neighbouring records already listed:
RAP1A (UniProt P62834)
inactive: erlotinib -0.007 | [1] 0.017 | [2] 0.058 | [3] 0.02 | [4] -0.051 | [5] -0.033 | [6] 0.165 | [7] 0.007 | [8] -0.007 | [9] 0.102 | IRAK-1-4 Inhibitor I 0.054 | ibrutinib -0.006 | [10] 0.002 | ralimetinib 0.109 | [11] -0.006 | [12] 0.131 | [13] -0.036 | pinometostat -0.06 | [14] -0.059 | [15] 0.014

RAP1GAP isoform 4 (UniProt P47736)
inactive: erlotinib 0.059 | [1] 0.106 | [2] -0.056 | [3] 0.03 | [4] -0.016 | [5] -0.055 | [6] -0.008 | [7] 0.139 | [8] -0.096 | [9] -0.048 | IRAK-1-4 Inhibitor I -0.006 | ibrutinib -0.027 | [10] -0.137 | ralimetinib -0.012 | [11] -0.027 | [12] -0.278 | [13] 0.082 | pinometostat -0.021 | [14] 0.077 | [15] 0.043

The list continues:

RACK1 (UniProt P63244)
inactive: erlotinib -0.059 | [1] 0.048 | [2] 0.046 | [3] 0.011 | [4] -0.027 | [5] -0.018 | [6] 0.051 | [7] -0.022 | [8] -0.005 | [9] -0.07 | IRAK-1-4 Inhibitor I -0.01 | ibrutinib 0.015 | [10] 0.019 | ralimetinib -0.007 | [11] 0.007 | [12] -0.024 | [13] -0.09 | pinometostat -0.059 | [14] -0.019 | [15] -0.002

RAB31 (UniProt Q13636)
inactive: erlotinib -0.009 | [1] 0.026 | [2] 0.025 | [3] 0.028 | [4] -0.016 | [5] 0.01 | [6] 0.038 | [7] -0.028 | [8] 0.012 | [9] 0.02 | IRAK-1-4 Inhibitor I 0.015 | ibrutinib 0.038 | [10] 0.025 | ralimetinib -0.019 | [11] -0.011 | [12] 0.081 | [13] -0.014 | pinometostat -0.035 | [14] -0.008 | [15] -0.018

RAN (UniProt P62826)
inactive: erlotinib 0 | [1] 0 | [2] 0.054 | [3] -0.023 | [4] 0 | [5] 0.005 | [6] -0.046 | [7] -0.021 | [8] 0.052 | [9] 0.035 | IRAK-1-4 Inhibitor I 0.073 | ibrutinib 0.017 | [10] 0.004 | ralimetinib -0.039 | [11] 0.029 | [12] 0.039 | [13] -0.022 | pinometostat -0.027 | [14] 0.023 | [15] -0.047

RASSF5 (UniProt Q8WWW0)
inactive: erlotinib -0.08 | [1] 0.001 | [2] -0.101 | [3] -0.033 | [4] -0.001 | [5] 0.005 | [6] 0.082 | [7] -0.07 | [8] 0.052 | [9] -0.001 | IRAK-1-4 Inhibitor I 0 | ibrutinib -0.062 | [10] 0.018 | ralimetinib 0.179 | [11] 0.067 | [12] 0.076 | [13] -0.124 | pinometostat 0.002 | [14] 0.025 | [15] -0.042

RBFOX2 isoform 8 (UniProt O43251)
inactive: erlotinib 0.04 | [1] -0.119 | [2] -0.122 | [3] -0.015 | [4] -0.108 | [5] -0.098 | [6] -0.169 | [7] 0.069 | [8] 0.093 | [9] 0.064 | IRAK-1-4 Inhibitor I -0.017 | ibrutinib 0.064 | [10] 0.032 | ralimetinib 0.124 | [11] -0.149 | [12] -0.076 | [13] -0.094 | pinometostat 0.1 | [14] 0.248 | [15] -0.025

RAB1A (UniProt P62820)
inactive: erlotinib 0.012 | [1] -0.027 | [2] 0.064 | [3] -0.023 | [4] -0.025 | [5] 0.003 | [6] -0.018 | [7] -0.005 | [8] 0.009 | [9] 0.031 | IRAK-1-4 Inhibitor I 0.04 | ibrutinib -0.001 | [10] 0.006 | ralimetinib -0.005 | [11] -0.009 | [12] 0.057 | [13] -0.029 | pinometostat -0.086 | [14] 0.01 | [15] 0.012

RANBP10 (UniProt Q6VN20)
inactive: erlotinib -0.217 | [1] -0.057 | [2] -0.003 | [3] 0.137 | [4] 0.032 | [5] 0.054 | [6] -0.109 | [7] -0.066 | [8] -0.045 | [9] -0.078 | IRAK-1-4 Inhibitor I -0.024 | ibrutinib 0 | [10] 0.017 | ralimetinib 0.057 | [11] -0.024 | [12] 0.036 | [13] 0.079 | pinometostat -0.011 | [14] 0.122 | [15] 0.013

RAP2B (UniProt P61225)
inactive: erlotinib 0.061 | [1] -0.007 | [2] 0.031 | [3] -0.025 | [4] 0.042 | [5] 0.018 | [6] 0.008 | [7] 0.009 | [8] -0.04 | [9] 0.157 | IRAK-1-4 Inhibitor I -0.013 | ibrutinib 0.044 | [10] -0.08 | ralimetinib -0.007 | [11] -0.024 | [12] 0.088 | [13] -0.014 | pinometostat -0.086 | [14] -0.031 | [15] 0.047

RAD23B (UniProt P54727)
inactive: erlotinib -0.008 | [1] -0.014 | [2] 0.036 | [3] -0.017 | [4] 0.009 | [5] -0.027 | [6] -0.036 | [7] -0.027 | [8] 0.028 | [9] 0.052 | IRAK-1-4 Inhibitor I 0.059 | ibrutinib 0.016 | [10] -0.004 | ralimetinib -0.086 | [11] 0.036 | [12] 0.084 | [13] -0.049 | pinometostat -0.017 | [14] 0.031 | [15] -0.039
